# Results of single-concentration screens

Values are the deposited “Percent Effect”, in %. How 0% and 100% were set is not recorded. Most values in the screen are low, and negative values occur. The compounds are a random part of those screened. Two or more numbers in one place are separate tests of the same structure; such repeats can differ widely.

Mtb cholesterol medium: 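Phenotypic screen: M. tuberculosis growth, cholesterol and DPPC medium, 4 days; the read-out is not stated. Concentration: 50 µM. Direction is inferred from retests: higher values go with more growth inhibition. About 69,000 compounds were tested under these conditions; 0.54% (about 370) showed 50% or more at least once.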
Mtb glucose medium: 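Phenotypic screen: M. tuberculosis growth, glucose 7H9 medium, 3 days; the read-out is not stated. Concentration: 50 µM. Direction is inferred from retests: higher values go with more growth inhibition. Size under these conditions: about 69,000 compounds, about 760 of them at 50% or above in at least one test.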

compound	Mtb cholesterol medium	Mtb glucose medium
CC(Nc1ccc(CN2CCCC2=O)cc1)C(=O)N(C)CCC#N (stereo not given)	6.832%	12.04%
CCN(Cc1cccc(Cl)c1)Cn1nc(C)c2c(C)onc2c1=O	-21.73%	-20.67%
O=C(O)C(F)(F)F.O=C(O)C(F)(F)F.O=C(O)C(F)(F)F.[H][C@@]12OCCN(CCN(CC)CC)[C@@]1([H])CC[C@@H]2OCc1ccncc1	-5.255%	-5.317% and 17.29%
CC(C)(C)c1ccc(=O)n(CN2CCCC(C(F)(F)F)C2)n1 (stereo not given)	-18.06%	-7.791%
O=C(NC1CCN(c2cccc(OC(F)(F)F)c2)C1=O)C1CCC1 (stereo not given)	-6.395% and -16.59%	9.866%
CN1CCCN(C(=O)NCCOc2ccc3c(c2)OCO3)CC1	-2.456%	-5.621%
Cc1ccc(O)c(CNCC2CCCN2c2cccnn2)n1 (stereo not given)	10.06%	16.49%
Cc1ccc2c(c1)C(=O)NCC1(CCN(C(=O)c3ccnn3C)CC1)O2	-1.565%	-4.143%
CCOCCCNC(=O)CCSCc1csc(C)n1	6.423%	-3.043%
O=C(O)C(F)(F)F.[H][C@@]12CC(COCc3ccccn3)C[C@@]1([H])N(C(=O)c1ccno1)CCO2 (stereo not given in full)	-13.69%	-14.79%
Cc1cc(C[S+]([O-])Cc2ccccc2F)no1 (stereo not given)	16.59%	0.5445%
COCC1CC2(CCN(C(=O)c3cccc(C)c3)CC2)CO1 (stereo not given)	14.07%	6.285%
CN(C)c1cc2c(nn1)CCN(C(=O)C1CCCc3ccccc31)C2 (stereo not given)	0.1697%	4.09% and -38.14%
CN1C(=O)C2(CCN(Cc3cccnc3)CC2)c2cccc(F)c21.Cl	-15.24%	9.369% and 5.432%
O=C(C1CCC1)N1CCC2(COCc3cnc(-c4cccnc4)nc32)C1 (stereo not given)	-9.939%	11.39% and 4.676%
Cl.NCC(=O)N1CCC(c2ccnc(Nc3cc(C(F)(F)F)ccn3)n2)C1 (stereo not given)	-18.74%	-27.48%
CCc1cnc(NCCS(=O)(=O)CC(C)C)nc1	-24.88%	26.17%
CSCCC(NC(N)=O)C(=O)NCc1cnn(-c2ccccc2)c1 (stereo not given)	-1.108%	5.161% and -19.82%
Cc1cc(C(=O)N2CCc3nc(N4CCOCC4)nc(C)c3C2)c(C)o1.O=CO	-15.45%	3.467%

Data taken from ChEMBL document CHEMBL3988442, “University of Dundee, Small-Polar-MMV Screening Library” (2021).